# Test results published in PubChem BioAssay AID2685 (National Center for Advancing Translational Sciences (NCATS), 2010).
# This is one part of the list. These are further read-outs of the screen, such as a control signal, another cell line or another target. No call is given for them. Compounds called inactive in the main read-out are mostly missing here. Potencies come from curve fits of mixed quality, noted in brackets.
# Test: qHTS Assay for Lipid Storage Modulators in Drosophila S3 Cells;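 for cell number change: cells counted by Cell Tracker Red CMTPX staining in the red channel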
# Conditions: BODIPY lipid droplet fluorescence, 18-24 h; for cell number change: measured here: cell count max response, cells fed with added oleic acid
# Method in brief: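 Laser-scanning cytometry quantifies lipid droplet accumulation (500–530 nm total intensity; droplet/cell object ratio) in oleic acid-fed (400 uM added) Drosophila S3 cells treated with a concentration series. 20 uM Triacsin C defined 100% inhibition.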
# [1] = measured here: cell number channel AC50, cells fed with added oleic acid
# [2] = measured here: lipid fluorescence (Fed channel) AC50, cells fed with added oleic acid
Structure (SMILES),cell number change,AC50 [1],AC50 [2]
CN(C)c1ccc(/C=N/OC(=O)Nc2ccccc2Cl)cc1,-45.2%,"25.9 µM [falling, single point]","25.9 µM [falling, partial curve, poor fit]"
Cc1cc(C)cc(CC2CC(=O)N(c3cc(C)ccc3C)C2=O)c1 (centres undefined),-1.06%,,
CCc1cc(C(=O)OC)c(NC(=O)C2CC(=O)NN2Cc2ccccc2)s1 (centres undefined),-32.8%,"32.6 µM [falling, single point]","0.651 µM [rising, partial curve, poor fit]"
O=C(NNC(=O)C1COc2ccccc2O1)c1ccccc1 (centres undefined),-32.9%,"7.31 µM [falling, partial curve, poor fit]",
Nc1ccn(CC(=O)NCCc2ccccn2)c(=O)n1,13.1%,,"16.4 µM [rising, single point]"
CCCCNc1nnc(SCC(=O)N2CCN(S(=O)(=O)c3ccc4ccccc4c3)CC2)s1,,"6.51 µM [rising, single point]","2.31 µM [rising, partial curve]"
O=C1NC(=S)S/C1=C1\Sc2ccccc2N1CCCS(=O)(=O)O,7.97%,,"29.1 µM [falling, partial curve]"
O=c1[nH]c2ccccc2cc1CN(Cc1cccnc1)S(=O)(=O)c1ccc(Cl)cc1,-37.3%,"13 µM [falling, partial curve, poor fit]","29.1 µM [falling, single point]"
Cc1c(-c2cccc(Cl)c2)nc2ccccc2c1C(=O)NC1CC1,-1.7%,,"29.1 µM [rising, single point]"
CC(C(=O)NCC1CCCCC1)N1CCN(S(=O)(=O)c2cccs2)CC1 (centres undefined),38.6%,"14.6 µM [rising, single point]",
COCCNC(=S)NN(c1ccccc1)c1ccccc1,-29%,"0.631 µM [falling, full curve, poor fit]","0.631 µM [falling, full curve, poor fit]"
CC1CN(C(=O)CCC(=O)NCCc2ccccc2)c2ccccc2O1 (centres undefined),-6.63%,,
OCc1nc2ccc(Cl)cc2[nH]1,23.7%,,"0.184 µM [rising, full curve, poor fit]"
CC(C)CN(C(=O)COC(=O)c1ccccc1Sc1ccccc1C#N)C1CCS(=O)(=O)C1 (centres undefined),,"5.8 µM [rising, single point]","7.31 µM [rising, partial curve]"
CC(NC(=O)C(=O)NCCN1CCN(C(=O)c2ccccc2Br)CC1)c1ccccc1 (centres undefined),12.8%,,
COCCCNC(=S)Nc1cc(C)c(C)cc1C,-2.06%,,"0.651 µM [falling, single point]"
COC(=O)c1ccccc1NC(=O)C1CCN(C(=O)c2cc(OC)c(OC)c(OC)c2)CC1,50.7%,"1.3 µM [rising, full curve]","1.46 µM [rising, partial curve]"
COCCCNC(=O)c1ccc(N2CCOCC2)c(NS(=O)(=O)c2ccc(OC)cc2)c1,7.19%,,"0.116 µM [rising, full curve, poor fit]"
Cc1ccc(C2(CCNCc3ccc(N(C)C)cc3)CCOC(C(C)C)C2)cc1 (centres undefined),-13.2%,"0.164 µM [falling, full curve, poor fit]","6.51 µM [falling, partial curve, poor fit]"
CCN(CC)CCCCOc1ccccc1OC,-67.2%,"16.4 µM [falling, partial curve, poor fit]",

Structure (SMILES),cell number change,AC50 [1],AC50 [2]
COc1ccc(C(=O)/C=C/c2cccc(OCc3ccccc3)c2)cc1CSCC(=O)O,20.7%,,"14.1 µM [falling, partial curve]"
CC(=O)c1ccc(OCC(=O)N2CCN(S(=O)(=O)c3ccc(C)cc3C)CC2)cc1,17.2%,,"0.316 µM [falling, single point]"
CC1=C(C(=O)NC2CCCCC2C)C2(CCC(C)CC2)OC1=O (centres undefined),-15.8%,"2.06 µM [falling, partial curve]","2.06 µM [falling, partial curve]"
CCOC(=O)c1ccc(NC(=O)CCNS(=O)(=O)c2cccs2)cc1,4.05%,,"29.1 µM [rising, single point]"
O=C(O)CSc1nnc(CNc2cccc(C(F)(F)F)c2)n1Cc1ccco1,0.65%,,"0.651 µM [rising, partial curve]"
O=c1ccc(-c2ccc(S(=O)(=O)Nc3ccc(F)cc3)s2)n[nH]1,-38.6%,"32.6 µM [falling, partial curve, poor fit]",
COc1ccc(CC(=O)NCC(=O)N/N=C/c2sccc2C)cc1,-1.52%,"0.58 µM [rising, single point]",
Cc1ccc(C(=O)N/N=C\c2ccc(-c3ccc(Cl)c(Cl)c3)o2)cn1,-16.9%,"0.0058 µM [falling, full curve, poor fit]","0.00411 µM [falling, full curve, poor fit]"
CCc1nn(CCCC(=O)Nc2ccc(C)c(C)c2)c(=O)c2cc3occc3n12,-6.49%,,"0.103 µM [rising, full curve, poor fit]"
CN1CCN(c2nc3c(c(=O)[nH]c(=O)n3C)n2Cc2ccc(Cl)cc2)CC1,12.8%,,
COc1ccccc1NC(=O)N(Cc1ccco1)Cc1cc2cccc(C)c2[nH]c1=O,,,"1.46 µM [rising, full curve, poor fit]"
Cn1nccc1C(=O)N/N=C/c1c(O)ccc2ccccc12,,,"11.6 µM [falling, partial curve]"
COc1ccc(CCN(C)C(=O)CSc2nnc(-c3ccco3)o2)cc1OC,-9.38%,,"20.6 µM [falling, single point]"
COc1cc(C(=O)Nc2c(C(=O)O)[nH]c3ccc(Br)cc23)cc(OC)c1OC,2.78%,,
Cc1ccc(NC(=O)CSc2nc3ccccc3nc2N2CCCC2)cc1,-2.59%,,
Cc1ccccc1NC(=O)COC(=O)c1ccc2c(c1)OCCO2,57%,"2.59 µM [rising, full curve]",
O=c1cc(Nc2ccc3c(c2)OCCO3)[nH]c(=O)n1-c1ccc(Cl)cc1,,,"0.651 µM [falling, full curve, poor fit]"
CCN1CCN(C(=O)C2CCN(S(=O)(=O)c3cccc4cccnc34)CC2)CC1,,,"0.461 µM [rising, partial curve, poor fit]"
O=C(CN1CCCC1=O)NC1C2CC3CC(C2)CC1C3 (centres undefined),-28.5%,"0.00366 µM [falling, full curve, poor fit]","0.326 µM [falling, full curve]"
COc1ccc(/C=N/NC(=O)c2cccnc2)cc1O,14.6%,,"20.6 µM [rising, single point]"

Structure (SMILES),cell number change,AC50 [1],AC50 [2]
Cn1c(CNC(=O)CNC(=O)c2ccccc2F)cc(=O)n(C)c1=O,35.8%,"0.00461 µM [rising, full curve]","0.00461 µM [rising, full curve, poor fit]"
CC(C)[C@H](NC(=O)N1CC(=O)Nc2ccccc21)C(=O)N[C@@H](Cc1c[nH]c2ccccc12)C(=O)O,14.6%,,"29.1 µM [rising, single point]"
COCCn1nnnc1C(c1ccc(OC)cc1OC)N1CCN(c2ccccc2)CC1 (centres undefined),-12.1%,,
CCc1cc2c(=O)[nH]c(-c3ccccn3)nc2s1,-16.4%,,"16.4 µM [falling, single point]"
O=c1c2c([nH]c3ccc(Br)cc13)CCCC2,-4.08%,,
COc1cc(OC)cc(C(=O)NC(C(=O)O)C23CC4CC(CC(C4)C2)C3)c1 (centres undefined),1.08%,,
CCOc1ccc(NC(=O)CN(C)C(=O)c2ccccc2-n2cnnn2)cc1OCC,18.9%,,
Cc1ccc(C(=O)Nc2sc(Cc3ccc4c(c3)OCO4)c(C)c2C(N)=O)cc1,,,"1.16 µM [rising, full curve]"
Cc1ccc(C)c(NC(=O)Cn2nnc(-c3ccc(N4CCOCC4)cc3)n2)c1,-28.4%,,
COc1ccc(C(=O)NC2CCN(C(=O)NC3CCCCC3)CC2)cc1,-4.29%,,"0.103 µM [falling, single point]"
Fc1ccc(NCc2nnc(SCc3nnc(-c4ccccc4)o3)n2CC2CCCO2)cc1 (centres undefined),,"2.06 µM [rising, partial curve]","2.59 µM [rising, partial curve]"
Cc1sc2ncnc(-n3nnc4ccccc43)c2c1C,12.3%,"1.3 µM [rising, single point]","1.16 µM [rising, single point]"
CCOC(=O)Cn1c(=O)oc2cc(S(=O)(=O)N3CCCc4ccccc43)ccc21,11.1%,"0.291 µM [rising, full curve]",
CCOc1ccc(NC(=S)/C(=C(\[O-])c2ccc(C)c([N+](=O)[O-])c2)[n+]2ccccc2)cc1,29.4%,,"6.51 µM [falling, single point]"
Cc1cccc(-n2nnc(C(=O)N3CCc4ccccc4C3)c2N)c1,15.5%,,
CN(C)CCCNCCCNC(=O)/C=N/O,-4.41%,,"0.0651 µM [rising, full curve]"
CCn1nccc1C(=O)Nc1cc(Cl)cc(Cl)c1,-43.4%,"18.4 µM [falling, single point]","20.6 µM [falling, single point]"
O=C(COC(=O)Cc1cccs1)Nc1ccccc1Cl,-7.33%,,
CCNC(=S)N(CCc1c(C)[nH]c2ccc(C)cc12)Cc1cc(OC)c(OC)c(OC)c1,11.9%,,"0.82 µM [rising, full curve]"
O=C1C(Cl)=C(NS(=O)(=O)c2ccc([N+](=O)[O-])cc2)C(=O)c2ccccc21,-16.3%,,"0.82 µM [falling, partial curve]"

# Rewritten with bars between the fields: entries from further up.
Structure (SMILES) | cell number change | AC50 [1] | AC50 [2]
COc1cc(OC)cc(C(=O)NC(C(=O)O)C23CC4CC(CC(C4)C2)C3)c1 (centres undefined) | 1.08% |  | 
CCOc1ccc(NC(=O)CN(C)C(=O)c2ccccc2-n2cnnn2)cc1OCC | 18.9% |  | 
Cc1ccc(C(=O)Nc2sc(Cc3ccc4c(c3)OCO4)c(C)c2C(N)=O)cc1 |  |  | 1.16 µM [rising, full curve]
Cc1ccc(C)c(NC(=O)Cn2nnc(-c3ccc(N4CCOCC4)cc3)n2)c1 | -28.4% |  | 
COc1ccc(C(=O)NC2CCN(C(=O)NC3CCCCC3)CC2)cc1 | -4.29% |  | 0.103 µM [falling, single point]
Fc1ccc(NCc2nnc(SCc3nnc(-c4ccccc4)o3)n2CC2CCCO2)cc1 (centres undefined) |  | 2.06 µM [rising, partial curve] | 2.59 µM [rising, partial curve]
Cc1sc2ncnc(-n3nnc4ccccc43)c2c1C | 12.3% | 1.3 µM [rising, single point] | 1.16 µM [rising, single point]
CCOC(=O)Cn1c(=O)oc2cc(S(=O)(=O)N3CCCc4ccccc43)ccc21 | 11.1% | 0.291 µM [rising, full curve] | 
CCOc1ccc(NC(=S)/C(=C(\[O-])c2ccc(C)c([N+](=O)[O-])c2)[n+]2ccccc2)cc1 | 29.4% |  | 6.51 µM [falling, single point]
Cc1cccc(-n2nnc(C(=O)N3CCc4ccccc4C3)c2N)c1 | 15.5% |  | 
CN(C)CCCNCCCNC(=O)/C=N/O | -4.41% |  | 0.0651 µM [rising, full curve]
CCn1nccc1C(=O)Nc1cc(Cl)cc(Cl)c1 | -43.4% | 18.4 µM [falling, single point] | 20.6 µM [falling, single point]
O=C(COC(=O)Cc1cccs1)Nc1ccccc1Cl | -7.33% |  | 
CCNC(=S)N(CCc1c(C)[nH]c2ccc(C)cc12)Cc1cc(OC)c(OC)c(OC)c1 | 11.9% |  | 0.82 µM [rising, full curve]
